In article doi:10.1101/2025.06.26.659600:
Results are given in words; binding and its absence hold for the method and conditions named. In cells and extracts the contact can be indirect. Some entries that bind do so weakly or less than the wild type. Sequences can lack the tags named with a protein.

Protein sequences, listed by entry. Tags and fused reporters are not part of them. Lines headed by an entry give the natural chain unless they say otherwise; changes in a name come on top.
UniProt O00459, whole entry: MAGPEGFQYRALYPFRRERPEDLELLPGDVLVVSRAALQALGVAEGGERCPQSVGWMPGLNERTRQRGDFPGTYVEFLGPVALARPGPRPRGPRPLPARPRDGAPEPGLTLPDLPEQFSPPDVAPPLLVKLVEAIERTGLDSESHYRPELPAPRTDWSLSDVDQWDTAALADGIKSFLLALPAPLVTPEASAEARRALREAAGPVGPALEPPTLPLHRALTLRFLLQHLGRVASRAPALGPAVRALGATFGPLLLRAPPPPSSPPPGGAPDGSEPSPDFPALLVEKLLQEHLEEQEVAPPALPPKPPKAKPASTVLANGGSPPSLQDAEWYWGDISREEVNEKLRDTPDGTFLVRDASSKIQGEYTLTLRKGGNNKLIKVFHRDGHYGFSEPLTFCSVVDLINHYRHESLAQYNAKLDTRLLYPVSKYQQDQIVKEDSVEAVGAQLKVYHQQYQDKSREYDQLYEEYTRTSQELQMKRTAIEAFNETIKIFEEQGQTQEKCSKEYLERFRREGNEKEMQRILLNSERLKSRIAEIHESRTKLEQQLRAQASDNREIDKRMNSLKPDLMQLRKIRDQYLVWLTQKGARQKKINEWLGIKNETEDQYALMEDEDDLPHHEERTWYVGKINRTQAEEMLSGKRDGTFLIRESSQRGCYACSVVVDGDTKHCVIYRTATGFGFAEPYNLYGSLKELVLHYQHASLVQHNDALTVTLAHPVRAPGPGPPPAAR

Target: HA-tagged p85β (UniProt O00459)
Assay: co-IP

B1: FLAG-tagged wild type p110δ (protein, UniProt O00329 1-1044)
chain: MPPGVDCPMEFWTKEENQSVVVDFLLPTGVYLNFPVSRNANLSTIKQLLWHRAQYEPLFHMLSGPEAYVFTCINQTAEQQELEDEQRRLCDVQPFLPVLRLVAREGDRVKKLINSQISLLIGKGLHEFDSLCDPEVNDFRAKMCQFCEEAAARRQQLGWEAWLQYSFPLQLEPSAQTWGPGTLRLPNRALLVNVKFEGSEESFTFQVSTKDVPLALMACALRKKATVFRQPLVEQPEDYTLQVNGRHEYLYGSYPLCQFQYICSCLHSGLTPHLTMVHSSSILAMRDEQSNPAPQVQKPRAKPPPIPAKKPSSVSLWSLEQPFRIELIQGSKVNADERMKLVVQAGLFHGNEMLCKTVSSSEVSVCSEPVWKQRLEFDINICDLPRMARLCFALYAVIEKAKKARSTKKKSKKADCPIAWANLMLFDYKDQLKTGERCLYMWPSVPDEKGELLNPTGTVRSNPNTDSAAALLICLPEVAPHPVYYPALEKILELGRHSECVHVTEEEQLQLREILERRGSGELYEHEKDLVWKLRHEVQEHFPEALARLLLVTKWNKHEDVAQMLYLLCSWPELPVLSALELLDFSFPDCHVGSFAIKSLRKLTDDELFQYLLQLVQVLKYESYLDCELTKFLLDRALANRKIGHFLFWHLRSEMHVPSVALRFGLILEAYCRGSTHHMKVLMKQGEALSKLKALNDFVKLSSQKTPKPQTKELMHLCMRQEAYLEALSHLQSPLDPSTLLAEVCVEQCTFMDSKMKPLWIMYSNEEAGSGGSVGIIFKNGDDLRQDMLTLQMIQLMDVLWKQEGLDLRMTPYGCLPTGDRTGLIEVVLRSDTIANIQLNKSNMAATAAFNKDALLNWLKSKNPGEALDRAIEEFTLSCAGYCVATYVLGIGDRHSDNIMIRESGQLFHIDFGHFLGNFKTKFGINRERVPFILTYDFVHVIQQGKTNNSEKFERFRGYCERAYTILRRHGLLFLHLFALMRAAGLPELSCSKDIQYLKDSLALGKTEEEALKHFRVKFNEALRESWKTKVNWLAHNVSKDNRQ
binding: binds
